PubChem BioAssay AID504764 – Drosophila RNAi Screening Center – 2011

- Assay: 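Genes whose knock-down alters Notch-dependent transcription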 (primary screen)
- Cells: Drosophila Kc167 cells
- Knock-down reagent: long dsRNA against Drosophila genes
- Time to read-out: about 5 days (4 days dsRNA, then 24 h after transfection)
- Challenge: transfection of constitutively active membrane-tethered Notch lacking the extracellular domain, read 24 h later
- Read-out: 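Firefly luciferase from an E(spl)m3 reporter with active Notch, plus control-promoter and uninduced reporter wells for normalisation; unnormalised counts, duplicate wells a and b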
- Scale: induced reporter light, run 1, well a and induced reporter light, run 1, well b: higher = more light from the Notch target reporter with active Notch; control promoter light, run 1, well a and control promoter light, run 1, well b: higher = more light from the viral control promoter (cell number, transfection, viability); uninduced reporter light, run 1, well a: higher = more light from the Notch target reporter without active Notch
- Active means: 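Hit if the duplicate-averaged log2 ratio of induced to control-promoter light gives a plate-wise z beyond ±2, or induced to uninduced beyond ±1.8; weak-control or discordant-duplicate wells dropped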
- Calls: active = modifier hit (raised or lowered Notch signal); inactive = not a hit
In all, the deposit lists about 22,000 reagents; shown is a random part of those with a known target gene and a result. In the full data, 403 (1.9%) were called active. 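Unnormalised raw counts per well; ratio z-scores behind the hit calls and whether each hit raises or lowers signal are not deposited.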 Reagent sequences are not shown. Not given: the amount of reagent.

Fim (Fimbrin) [DRSC20243]: induced reporter light, run 1, well a = 95045; induced reporter light, run 1, well b = 1.16e5; control promoter light, run 1, well a = 87630; control promoter light, run 1, well b = 52230; uninduced reporter light, run 1, well a = 9328; call = inactive
CG13392 [DRSC02262]: induced reporter light, run 1, well a = 1.44e5; induced reporter light, run 1, well b = 1.80e5; control promoter light, run 1, well a = 84965; control promoter light, run 1, well b = 97925; uninduced reporter light, run 1, well a = 19238; call = inactive
Rcd6 (Reduction in Cnn dots 6) [DRSC06054]: induced reporter light, run 1, well a = 1.25e5; induced reporter light, run 1, well b = 1.05e5; control promoter light, run 1, well a = 1.80e5; control promoter light, run 1, well b = 1.74e5; uninduced reporter light, run 1, well a = 8475; call = inactive
CG32700 [DRSC17857]: induced reporter light, run 1, well a = 1.18e5; induced reporter light, run 1, well b = 1.12e5; control promoter light, run 1, well a = 1.88e5; control promoter light, run 1, well b = 2.38e5; uninduced reporter light, run 1, well a = 8460; call = inactive
CG32700 [DRSC17858]: induced reporter light, run 1, well a = 1.24e5; induced reporter light, run 1, well b = 1.33e5; control promoter light, run 1, well a = 2.31e5; control promoter light, run 1, well b = 1.67e5; uninduced reporter light, run 1, well a = 10160; call = inactive
CG4213 [DRSC00641]: induced reporter light, run 1, well a = 1.28e5; induced reporter light, run 1, well b = 1.00e5; control promoter light, run 1, well a = 86545; control promoter light, run 1, well b = 55080; uninduced reporter light, run 1, well a = 8610; call = inactive
Hr51 (Hormone receptor 51) [DRSC06627]: induced reporter light, run 1, well a = 91310; induced reporter light, run 1, well b = 81695; control promoter light, run 1, well a = 1.18e5; control promoter light, run 1, well b = 1.24e5; uninduced reporter light, run 1, well a = 7065; call = inactive
Hr51 (Hormone receptor 51) [DRSC22829]: call = active
CG13361 [DRSC17896]: induced reporter light, run 1, well a = 1.10e5; induced reporter light, run 1, well b = 1.07e5; control promoter light, run 1, well a = 2.30e5; control promoter light, run 1, well b = 1.93e5; uninduced reporter light, run 1, well a = 8215; call = inactive
CG15020 [DRSC08474]: induced reporter light, run 1, well a = 1.68e5; induced reporter light, run 1, well b = 1.41e5; control promoter light, run 1, well a = 1.89e5; control promoter light, run 1, well b = 1.54e5; uninduced reporter light, run 1, well a = 5305; call = inactive
CG42694 [DRSC03955]: induced reporter light, run 1, well a = 76720; induced reporter light, run 1, well b = 72605; control promoter light, run 1, well a = 88730; control promoter light, run 1, well b = 86305; uninduced reporter light, run 1, well a = 8945; call = inactive
CG32111 (retired record) [DRSC09203]: induced reporter light, run 1, well a = 1.91e5; induced reporter light, run 1, well b = 1.63e5; control promoter light, run 1, well a = 2.13e5; control promoter light, run 1, well b = 2.58e5; uninduced reporter light, run 1, well a = 18965; call = inactive
